Results on 31 targets are retold here after the supplement of paper PMC12819154, “High-throughput peptide-centric local stability assay extends protein–ligand identification to membrane proteins, tissues and bacteria” (Nature Structural & Molecular Biology, 2025).

Amino acid sequences for entries named in this document (tags omitted). A change or cut given only in a name is not applied to a line headed by its entry.
UniProt P09036: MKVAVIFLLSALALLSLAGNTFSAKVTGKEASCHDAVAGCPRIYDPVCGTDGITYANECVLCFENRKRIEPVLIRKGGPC
UniProt P0C673: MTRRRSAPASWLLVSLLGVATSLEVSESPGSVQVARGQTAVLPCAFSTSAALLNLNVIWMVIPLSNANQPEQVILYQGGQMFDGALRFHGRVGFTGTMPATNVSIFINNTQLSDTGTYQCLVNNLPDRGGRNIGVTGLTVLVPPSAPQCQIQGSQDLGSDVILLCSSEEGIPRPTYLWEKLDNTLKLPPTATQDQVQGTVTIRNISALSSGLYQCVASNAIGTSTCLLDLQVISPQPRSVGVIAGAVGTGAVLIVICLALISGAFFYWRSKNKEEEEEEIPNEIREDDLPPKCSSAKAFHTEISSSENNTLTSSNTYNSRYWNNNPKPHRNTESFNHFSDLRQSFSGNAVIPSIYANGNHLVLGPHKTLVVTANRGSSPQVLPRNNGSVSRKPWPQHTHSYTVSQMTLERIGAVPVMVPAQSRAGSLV
UniProt P13011: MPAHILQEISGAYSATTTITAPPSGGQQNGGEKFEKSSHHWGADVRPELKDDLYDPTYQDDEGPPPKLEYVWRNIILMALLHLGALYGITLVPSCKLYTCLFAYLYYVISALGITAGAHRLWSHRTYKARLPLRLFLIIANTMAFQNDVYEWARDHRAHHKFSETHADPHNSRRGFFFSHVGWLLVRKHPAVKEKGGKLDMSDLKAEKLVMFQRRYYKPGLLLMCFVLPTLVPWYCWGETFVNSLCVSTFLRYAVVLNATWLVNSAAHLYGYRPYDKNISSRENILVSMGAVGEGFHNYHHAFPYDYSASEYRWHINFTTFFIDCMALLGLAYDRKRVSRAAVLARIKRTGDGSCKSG
UniProt P09450: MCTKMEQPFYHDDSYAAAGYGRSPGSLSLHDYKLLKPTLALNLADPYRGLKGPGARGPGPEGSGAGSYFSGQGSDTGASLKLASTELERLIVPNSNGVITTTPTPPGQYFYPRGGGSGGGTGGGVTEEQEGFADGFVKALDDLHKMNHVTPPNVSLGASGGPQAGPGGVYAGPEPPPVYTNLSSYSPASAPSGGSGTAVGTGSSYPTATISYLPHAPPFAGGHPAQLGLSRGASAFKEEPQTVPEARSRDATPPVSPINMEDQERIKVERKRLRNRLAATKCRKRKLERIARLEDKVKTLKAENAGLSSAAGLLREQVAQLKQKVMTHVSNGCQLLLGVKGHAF
UniProt P01898: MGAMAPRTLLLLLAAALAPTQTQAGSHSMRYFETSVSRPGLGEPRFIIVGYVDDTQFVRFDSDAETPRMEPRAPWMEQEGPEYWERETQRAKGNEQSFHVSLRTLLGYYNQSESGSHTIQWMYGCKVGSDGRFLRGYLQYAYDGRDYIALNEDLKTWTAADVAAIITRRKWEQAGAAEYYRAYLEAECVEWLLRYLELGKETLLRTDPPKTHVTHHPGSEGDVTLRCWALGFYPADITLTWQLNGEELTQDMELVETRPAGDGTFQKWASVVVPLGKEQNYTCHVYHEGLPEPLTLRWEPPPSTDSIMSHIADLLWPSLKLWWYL
UniProt P11031: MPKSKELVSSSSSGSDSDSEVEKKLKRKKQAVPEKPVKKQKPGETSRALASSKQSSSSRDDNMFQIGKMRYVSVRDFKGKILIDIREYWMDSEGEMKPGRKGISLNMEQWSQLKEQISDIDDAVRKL
UniProt P12791: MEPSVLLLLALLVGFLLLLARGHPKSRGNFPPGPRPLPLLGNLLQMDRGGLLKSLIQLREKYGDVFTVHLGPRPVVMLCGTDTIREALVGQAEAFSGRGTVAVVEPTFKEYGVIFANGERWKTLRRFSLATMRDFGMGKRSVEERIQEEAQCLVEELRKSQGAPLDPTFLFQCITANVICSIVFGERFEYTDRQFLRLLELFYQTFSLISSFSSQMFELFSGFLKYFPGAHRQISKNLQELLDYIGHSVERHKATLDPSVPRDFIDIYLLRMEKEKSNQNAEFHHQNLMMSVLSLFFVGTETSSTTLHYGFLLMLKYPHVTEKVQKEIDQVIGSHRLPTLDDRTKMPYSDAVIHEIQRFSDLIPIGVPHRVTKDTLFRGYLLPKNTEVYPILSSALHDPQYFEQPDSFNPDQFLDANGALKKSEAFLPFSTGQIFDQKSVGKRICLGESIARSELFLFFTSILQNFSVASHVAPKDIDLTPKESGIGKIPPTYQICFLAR
UniProt O89020: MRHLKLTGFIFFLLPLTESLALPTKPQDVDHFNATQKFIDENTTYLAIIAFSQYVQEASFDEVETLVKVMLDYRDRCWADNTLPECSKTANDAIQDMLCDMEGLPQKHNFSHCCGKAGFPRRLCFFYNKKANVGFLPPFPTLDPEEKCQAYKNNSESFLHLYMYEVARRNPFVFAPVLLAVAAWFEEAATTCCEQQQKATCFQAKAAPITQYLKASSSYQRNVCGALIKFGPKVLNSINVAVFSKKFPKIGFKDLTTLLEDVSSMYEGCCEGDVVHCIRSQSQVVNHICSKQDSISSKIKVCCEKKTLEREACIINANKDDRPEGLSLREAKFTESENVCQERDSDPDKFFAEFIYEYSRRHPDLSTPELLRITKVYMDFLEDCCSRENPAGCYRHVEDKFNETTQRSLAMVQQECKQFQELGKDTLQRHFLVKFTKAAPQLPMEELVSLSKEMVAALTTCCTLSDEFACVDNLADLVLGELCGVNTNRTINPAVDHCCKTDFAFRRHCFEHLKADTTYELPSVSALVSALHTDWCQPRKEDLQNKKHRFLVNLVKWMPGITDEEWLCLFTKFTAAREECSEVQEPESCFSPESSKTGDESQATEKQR
UniProt P08103: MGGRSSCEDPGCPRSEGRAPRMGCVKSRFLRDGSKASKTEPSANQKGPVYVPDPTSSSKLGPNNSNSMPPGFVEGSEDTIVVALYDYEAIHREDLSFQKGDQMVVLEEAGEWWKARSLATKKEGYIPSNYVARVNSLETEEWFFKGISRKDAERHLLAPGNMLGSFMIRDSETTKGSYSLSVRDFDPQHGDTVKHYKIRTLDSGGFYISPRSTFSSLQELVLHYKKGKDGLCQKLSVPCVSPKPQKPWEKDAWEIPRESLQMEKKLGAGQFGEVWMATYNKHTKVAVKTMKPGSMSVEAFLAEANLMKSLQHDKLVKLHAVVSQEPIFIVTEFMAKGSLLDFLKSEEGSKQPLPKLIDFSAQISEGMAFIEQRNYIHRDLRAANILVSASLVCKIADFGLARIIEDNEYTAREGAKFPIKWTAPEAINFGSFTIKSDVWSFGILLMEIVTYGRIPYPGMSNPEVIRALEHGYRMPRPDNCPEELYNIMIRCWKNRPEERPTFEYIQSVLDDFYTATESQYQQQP
UniProt P04918: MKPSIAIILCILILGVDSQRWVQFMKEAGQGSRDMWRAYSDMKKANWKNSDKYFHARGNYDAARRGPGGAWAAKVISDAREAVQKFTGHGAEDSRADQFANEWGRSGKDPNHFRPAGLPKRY
UniProt P02798: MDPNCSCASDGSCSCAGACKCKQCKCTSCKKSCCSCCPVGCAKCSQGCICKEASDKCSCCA
UniProt P08680: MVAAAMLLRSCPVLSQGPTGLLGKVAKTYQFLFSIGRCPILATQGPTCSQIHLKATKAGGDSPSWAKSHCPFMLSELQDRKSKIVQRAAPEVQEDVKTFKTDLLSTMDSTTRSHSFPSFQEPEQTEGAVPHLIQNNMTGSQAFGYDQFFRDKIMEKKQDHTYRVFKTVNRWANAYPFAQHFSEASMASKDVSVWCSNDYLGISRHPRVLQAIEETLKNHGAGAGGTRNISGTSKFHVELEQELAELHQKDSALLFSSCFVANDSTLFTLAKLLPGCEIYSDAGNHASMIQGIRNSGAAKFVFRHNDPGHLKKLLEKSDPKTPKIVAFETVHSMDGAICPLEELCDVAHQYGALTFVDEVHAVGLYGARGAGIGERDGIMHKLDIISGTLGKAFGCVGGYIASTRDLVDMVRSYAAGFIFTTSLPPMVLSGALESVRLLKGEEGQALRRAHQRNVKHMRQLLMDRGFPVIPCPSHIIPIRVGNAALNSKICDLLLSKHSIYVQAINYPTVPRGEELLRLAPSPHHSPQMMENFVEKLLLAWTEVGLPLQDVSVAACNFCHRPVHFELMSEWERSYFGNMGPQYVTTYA
UniProt P15532, whole entry: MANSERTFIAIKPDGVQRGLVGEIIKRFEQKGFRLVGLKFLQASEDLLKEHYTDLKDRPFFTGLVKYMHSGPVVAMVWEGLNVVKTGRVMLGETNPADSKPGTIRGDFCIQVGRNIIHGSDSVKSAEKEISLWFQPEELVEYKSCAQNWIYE
UniProt P10287: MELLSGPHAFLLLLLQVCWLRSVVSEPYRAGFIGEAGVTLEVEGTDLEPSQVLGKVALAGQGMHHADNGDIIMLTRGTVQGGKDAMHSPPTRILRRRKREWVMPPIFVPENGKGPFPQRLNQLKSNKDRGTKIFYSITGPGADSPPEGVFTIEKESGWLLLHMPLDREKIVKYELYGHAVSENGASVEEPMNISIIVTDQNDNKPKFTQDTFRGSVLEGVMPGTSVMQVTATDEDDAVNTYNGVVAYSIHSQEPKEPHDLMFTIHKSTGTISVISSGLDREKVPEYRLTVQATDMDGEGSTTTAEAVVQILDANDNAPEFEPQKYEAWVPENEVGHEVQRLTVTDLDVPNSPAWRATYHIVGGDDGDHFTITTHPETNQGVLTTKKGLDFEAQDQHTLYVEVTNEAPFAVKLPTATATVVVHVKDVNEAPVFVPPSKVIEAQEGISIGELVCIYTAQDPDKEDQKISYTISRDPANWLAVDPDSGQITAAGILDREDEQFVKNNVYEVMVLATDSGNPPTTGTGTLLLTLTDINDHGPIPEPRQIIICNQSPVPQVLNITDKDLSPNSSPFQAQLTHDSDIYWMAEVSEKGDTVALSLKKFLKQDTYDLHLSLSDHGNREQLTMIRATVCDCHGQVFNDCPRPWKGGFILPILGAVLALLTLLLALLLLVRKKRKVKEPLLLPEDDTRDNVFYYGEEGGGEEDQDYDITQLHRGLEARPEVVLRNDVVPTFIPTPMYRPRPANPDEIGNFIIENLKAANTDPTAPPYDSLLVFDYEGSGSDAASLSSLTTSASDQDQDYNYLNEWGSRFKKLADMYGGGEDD
UniProt P0DJF2: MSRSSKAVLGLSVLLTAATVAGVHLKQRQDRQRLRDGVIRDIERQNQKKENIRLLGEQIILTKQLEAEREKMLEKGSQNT
UniProt P11499, whole entry: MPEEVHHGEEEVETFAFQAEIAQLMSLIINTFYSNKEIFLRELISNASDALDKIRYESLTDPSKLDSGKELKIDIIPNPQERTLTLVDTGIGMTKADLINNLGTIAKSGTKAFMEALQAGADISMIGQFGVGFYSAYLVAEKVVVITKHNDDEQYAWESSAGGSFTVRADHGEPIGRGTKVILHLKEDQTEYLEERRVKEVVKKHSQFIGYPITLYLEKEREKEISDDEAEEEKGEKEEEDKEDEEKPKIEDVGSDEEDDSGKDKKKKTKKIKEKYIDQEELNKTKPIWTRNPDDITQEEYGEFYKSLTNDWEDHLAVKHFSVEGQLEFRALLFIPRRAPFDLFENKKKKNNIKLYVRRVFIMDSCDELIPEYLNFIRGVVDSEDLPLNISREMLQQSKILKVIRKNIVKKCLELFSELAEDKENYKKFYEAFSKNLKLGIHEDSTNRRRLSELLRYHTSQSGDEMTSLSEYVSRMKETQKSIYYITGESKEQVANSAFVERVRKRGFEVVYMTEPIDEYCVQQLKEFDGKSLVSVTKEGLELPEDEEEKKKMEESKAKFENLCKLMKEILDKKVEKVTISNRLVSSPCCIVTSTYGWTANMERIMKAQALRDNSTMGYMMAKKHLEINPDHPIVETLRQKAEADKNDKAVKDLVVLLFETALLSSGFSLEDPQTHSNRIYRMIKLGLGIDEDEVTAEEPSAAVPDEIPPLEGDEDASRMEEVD
UniProt P15327: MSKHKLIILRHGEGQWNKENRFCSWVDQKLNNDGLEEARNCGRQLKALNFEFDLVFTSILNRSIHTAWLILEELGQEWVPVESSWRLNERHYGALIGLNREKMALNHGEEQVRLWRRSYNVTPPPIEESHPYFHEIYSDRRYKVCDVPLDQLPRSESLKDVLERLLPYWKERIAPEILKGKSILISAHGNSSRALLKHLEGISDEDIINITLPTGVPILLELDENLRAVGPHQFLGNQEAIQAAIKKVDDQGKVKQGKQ
UniProt O88895: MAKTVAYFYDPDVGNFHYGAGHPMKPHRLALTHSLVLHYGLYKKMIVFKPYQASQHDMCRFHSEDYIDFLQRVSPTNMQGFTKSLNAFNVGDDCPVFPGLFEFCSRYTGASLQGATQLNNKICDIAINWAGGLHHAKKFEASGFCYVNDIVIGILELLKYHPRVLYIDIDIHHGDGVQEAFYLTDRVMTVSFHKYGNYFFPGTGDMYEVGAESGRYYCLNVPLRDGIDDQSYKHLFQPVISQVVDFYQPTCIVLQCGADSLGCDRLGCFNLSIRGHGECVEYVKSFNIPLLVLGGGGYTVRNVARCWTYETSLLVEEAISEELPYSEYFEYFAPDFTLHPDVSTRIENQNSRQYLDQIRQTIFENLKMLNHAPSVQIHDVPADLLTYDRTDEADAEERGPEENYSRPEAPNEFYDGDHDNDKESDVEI

The other results are listed elsewhere or left out. Small differences around the control level are noise.

Compound in this test: CN[C@@H]1C[C@H]2O[C@@](C)([C@@H]1OC)n1c3ccccc3c3c4c(c5c6ccccc6n2c5c31)C(=O)NC4 [staurosporine]
Nature of the test: log2 fold change of tryptic peptide abundance, ligand vs vehicle (limited proteolysis) (log2 ratio); higher = more trypsin-susceptible (destabilized). To be noted: ligand concentration: 20 uM; sample: mouse liver crude lysate; replicate design: treated separately.
For “UniProt P14069 (peptide sequence: LQDAEIAR, peptide start residue: 48)”, the log2 fold change is -0.151.
Take “UniProt P09036 (peptide sequence: VTGKEASCHDAVAGCPR, peptide start residue: 26)”: the log2 fold change is -0.54.
As for “UniProt P11087 (peptide sequence: SLSQQIENIR, peptide start residue: 1226)”, the figure is 0.521; as for “UniProt P0C673 (peptide sequence: GSSPQVLPR, peptide start residue: 376)”, 0.334; as for “UniProt P13011 (peptide sequence: RGFFFSHVGWLLVRK, peptide start residue: 171)”, 0.84.
Turning to “UniProt P09450 (peptide sequence: AENAGLSSAAGLLR, peptide start residue: 302)”, the log2 fold change worked out at 0.471.
The value for “UniProt P01898 (peptide sequence: YFETSVSRPGLGEPR, peptide start residue: 31)” was -0.0965.
With “UniProt P11031 (peptide sequence: QAVPEKPVK, peptide start residue: 30)”, the log2 fold change was -0.149.
As for “UniProt P12791 (peptide sequence: ATLDPSVPR, peptide start residue: 254)”, the figure is -0.099; as for “UniProt O89020 (peptide sequence: NVCGALIK, peptide start residue: 222)”, 0.216.
Regarding “UniProt O89091 (peptide sequence: MELISEKPR, peptide start residue: 16)”, the log2 fold change stood at 0.873.
On to “UniProt O88935 (peptide sequence: QAGAPQATR, peptide start residue: 557)”, for which the log2 fold change stood at 0.321.
As for “UniProt P08103 (peptide sequence: IIEDNEYTAR, peptide start residue: 403)”, the figure is -0.22.
Regarding “UniProt P04918 (peptide sequence: NSDKYFHAR, peptide start residue: 49)”, the log2 fold change was determined as 0.144.
The value for “UniProt P13405 (peptide sequence: FDIEGADEADGSK, peptide start residue: 870)” was 0.39; that for “UniProt P11930 (peptide sequence: EAFEEAGVLLLRPR, peptide start residue: 112)” was -0.504; that for “UniProt P02798 (peptide sequence: KSCCSCCPVGCAK, peptide start residue: 31)” was 0.0182.
The value for “UniProt P05784 (peptide sequence: QAQEYEALLNIKVK, peptide start residue: 352)” was 0.618; that for “UniProt P08680 (peptide sequence: SHCPFMLSELQDRK, peptide start residue: 68)” was -0.247; that for “UniProt P11688 (peptide sequence: AQLKPPATSDA, peptide start residue: 1043)” was -0.132.
The value for “UniProt P15532 (peptide sequence: DRPFFTGLVK, peptide start residue: 57)” was -0.258; that for “UniProt P10287 (peptide sequence: EKVPEYR, peptide start residue: 281)” was -0.0916.
In the case of “UniProt P0DJF2 (peptide sequence: LLGEQIILTK, peptide start residue: 54)”, the log2 fold change is 0.0374.
Consider “UniProt P11499 (peptide sequence: YESLTDPSKLDSGKELK, peptide start residue: 56)”, for which the log2 fold change was -0.561.
In the case of “UniProt P15327 (peptide sequence: MALNHGEEQVR, peptide start residue: 103)”, the log2 fold change was 0.169.
The value for “UniProt P08249 (peptide sequence: MIAEAIPELK, peptide start residue: 315)” was -0.192; that for “UniProt P05063 (peptide sequence: GILAADESVGSMAK, peptide start residue: 29)” was -0.238; that for “UniProt P08003 (peptide sequence: FIDEHATK, peptide start residue: 623)” was -0.295.
The value for “UniProt O88974 (peptide sequence: KKQLAELETWVLQK, peptide start residue: 58)” was 0.5; that for “UniProt O88895 (peptide sequence: QTIFENLK, peptide start residue: 360)” was -0.246; that for “UniProt O88990 (peptide sequence: ALDFIASK, peptide start residue: 116)” was -0.158.
